{"source": "PubChem BioAssay AID1224826 (NIAID, 2016)", "purpose": "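Knock-downs that raise or lower Tnf reporter signal after endotoxin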 (primary screen)", "cell system": "RAW264.7 G9 macrophages from mouse bearing reporters for p65 (GFP) and the Tnf promoter (mCherry)", "reagent": "siRNA pool against mouse genes, 100 nM", "time to read-out": "16 h of LPS stimulation, after 2 days of siRNA transfection", "conditions": "bacterial lipopolysaccharide (Salmonella minnesota R595), 10 ng/ml", "read-out": "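Imaged Tnf reporter mCherry in nuclei, minus background, normalised per plate to the median and expressed as robust z-scores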", "reading the numbers": "Tnf reporter robust z-score: higher = stronger Tnf promoter reporter signal after LPS", "rule for the call": "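a well counts as active at a score of -1.3 or below (Tlr4 knock-down control median) or above 3 (raised signal); controls and wells holding fewer than 50 cells are excluded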", "meaning of the calls": "active = Tnf reporter clearly lowered or raised; inactive = no clear change in Tnf reporter", "note": "In all, the deposit lists about 17,000 reagents; below is a part drawn at random. In the full data, about 1,110 (6.6%) are marked active. 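Active means lowered or raised reporter signal; replicate intensities are raw and not normalised per plate.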 Unmarked entries are inactive. Reagents against one gene are numbered here. Further read-outs or replicates are left out here. No sequences are given here."}
{"gene": "Or4x13 (GeneID 258330)", "reagent": 1, "Tnf reporter robust z-score": 1.46, "fewer than 50 cells in well": "enough cells in well"}
{"gene": "Or4x13 (GeneID 258330)", "reagent": 2, "Tnf reporter robust z-score": -0.37, "fewer than 50 cells in well": "enough cells in well"}
{"gene": "Tcf25 (GeneID 66855)", "reagent": 1, "Tnf reporter robust z-score": 0.53, "fewer than 50 cells in well": "enough cells in well"}
{"gene": "Chst9 (GeneID 71367)", "reagent": 1, "Tnf reporter robust z-score": 0.33, "fewer than 50 cells in well": "enough cells in well"}
{"gene": "Fam20b (GeneID 215015)", "reagent": 1, "Tnf reporter robust z-score": -0.34, "fewer than 50 cells in well": "enough cells in well"}
{"gene": "Pkdcc (GeneID 106522)", "reagent": 1, "Tnf reporter robust z-score": 0.37, "fewer than 50 cells in well": "enough cells in well"}
{"gene": "Anxa6 (GeneID 11749)", "reagent": 1, "Tnf reporter robust z-score": 0.58, "fewer than 50 cells in well": "enough cells in well"}
{"gene": "Tmod4 (GeneID 50874)", "reagent": 1, "Tnf reporter robust z-score": "-1.39 (active)", "fewer than 50 cells in well": "enough cells in well"}
{"gene": "Sema4a (GeneID 20351)", "reagent": 1, "Tnf reporter robust z-score": -1.05, "fewer than 50 cells in well": "enough cells in well"}
{"gene": "Zmiz1 (GeneID 328365)", "reagent": 1, "Tnf reporter robust z-score": 1.32, "fewer than 50 cells in well": "enough cells in well"}
{"gene": "Hemgn (GeneID 93966)", "reagent": 1, "Tnf reporter robust z-score": -0.77, "fewer than 50 cells in well": "enough cells in well"}
{"gene": "Srsf7 (GeneID 225027)", "reagent": 1, "Tnf reporter robust z-score": -0.44, "fewer than 50 cells in well": "enough cells in well"}
{"gene": "Brf2 (GeneID 66653)", "reagent": 1, "fewer than 50 cells in well": "fewer than 50 cells per well; well left out of calls"}
{"gene": "Polr3e (GeneID 26939)", "reagent": 1, "Tnf reporter robust z-score": "3.32 (active)", "fewer than 50 cells in well": "enough cells in well"}

Reagents listed above marked active (2):
{"gene": "Tmod4 (GeneID 50874)", "reagent": 1, "Tnf reporter robust z-score": "-1.39 (active)", "fewer than 50 cells in well": "enough cells in well"}
{"gene": "Polr3e (GeneID 26939)", "reagent": 1, "Tnf reporter robust z-score": "3.32 (active)", "fewer than 50 cells in well": "enough cells in well"}
